Results are given in words; binding and its absence hold for the method and conditions named. For part of these data: In cells and extracts the contact can be indirect. Some results given as binding are weak or reduced against the parent protein; the word gives no strength. Where a sequence is shown, tags or fusion partners need not be part of it.
How the values were obtained:
[1] = target: SEPT2-β10 and SEPT2-β11 (wild-type SEPT2 fused to GFP strand β10 or β11) (human) (UniProt Q15019); test: split reporter
[2] = target: T1, β10-SEPT7 and β11-SEPT7 (wild-type SEPT7 fused to GFP strand β10 or β11) (human), Q16181; test: split reporter; details: remark: other sources report otherwise
T1 chain: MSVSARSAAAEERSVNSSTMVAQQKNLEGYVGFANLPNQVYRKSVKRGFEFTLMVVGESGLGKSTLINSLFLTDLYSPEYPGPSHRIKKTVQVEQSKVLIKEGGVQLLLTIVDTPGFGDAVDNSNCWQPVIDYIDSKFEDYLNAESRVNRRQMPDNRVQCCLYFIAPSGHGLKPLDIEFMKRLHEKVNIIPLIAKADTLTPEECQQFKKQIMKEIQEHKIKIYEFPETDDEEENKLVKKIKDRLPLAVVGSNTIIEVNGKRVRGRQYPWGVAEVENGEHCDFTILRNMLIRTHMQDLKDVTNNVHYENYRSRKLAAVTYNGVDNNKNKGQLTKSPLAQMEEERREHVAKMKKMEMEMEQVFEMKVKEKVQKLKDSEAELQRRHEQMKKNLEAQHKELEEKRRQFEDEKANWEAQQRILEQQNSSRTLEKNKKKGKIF

[3] = target: T2, β10-SEPT7Gmut2 and β11-SEPT7Gmut2 (SEPT7 H279D) (human) (UniProt Q16181); test: split reporter
T2 sequence: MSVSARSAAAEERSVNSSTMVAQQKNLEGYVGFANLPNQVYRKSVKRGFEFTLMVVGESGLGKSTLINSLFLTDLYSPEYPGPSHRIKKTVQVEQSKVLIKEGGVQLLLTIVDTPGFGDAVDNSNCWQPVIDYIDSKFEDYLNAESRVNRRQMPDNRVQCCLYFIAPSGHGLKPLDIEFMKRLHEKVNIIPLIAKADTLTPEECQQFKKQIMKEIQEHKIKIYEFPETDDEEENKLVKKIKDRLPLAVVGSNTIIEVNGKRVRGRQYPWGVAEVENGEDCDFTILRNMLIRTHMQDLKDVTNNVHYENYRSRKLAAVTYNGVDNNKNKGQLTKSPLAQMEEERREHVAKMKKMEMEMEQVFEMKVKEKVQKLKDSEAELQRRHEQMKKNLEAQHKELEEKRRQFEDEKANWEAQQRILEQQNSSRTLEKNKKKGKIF

[4] = target: T3, β10-SEPT7 and β11-SEPT7 (wild-type SEPT7 fused to GFP strand β10 or β11) (human) (UniProt Q16181); test: split reporter
T3 sequence: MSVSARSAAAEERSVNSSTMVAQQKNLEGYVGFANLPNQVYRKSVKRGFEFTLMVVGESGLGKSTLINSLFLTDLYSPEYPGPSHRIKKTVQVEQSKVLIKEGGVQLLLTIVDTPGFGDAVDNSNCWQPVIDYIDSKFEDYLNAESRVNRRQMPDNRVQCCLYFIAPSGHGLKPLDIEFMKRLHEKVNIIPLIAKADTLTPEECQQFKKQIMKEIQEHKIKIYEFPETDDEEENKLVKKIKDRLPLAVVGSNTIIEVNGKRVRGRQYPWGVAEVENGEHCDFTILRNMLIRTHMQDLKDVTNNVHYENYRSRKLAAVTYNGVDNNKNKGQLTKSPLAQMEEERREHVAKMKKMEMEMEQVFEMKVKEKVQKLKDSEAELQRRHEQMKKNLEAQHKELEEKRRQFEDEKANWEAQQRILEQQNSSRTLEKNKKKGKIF

[5] = target: T4, SEPT7 (endogenous, U2OS) (human (endogenous in U2OS)), Q16181; test: native gel or EMSA; details: remark: other sources report otherwise
T4 chain: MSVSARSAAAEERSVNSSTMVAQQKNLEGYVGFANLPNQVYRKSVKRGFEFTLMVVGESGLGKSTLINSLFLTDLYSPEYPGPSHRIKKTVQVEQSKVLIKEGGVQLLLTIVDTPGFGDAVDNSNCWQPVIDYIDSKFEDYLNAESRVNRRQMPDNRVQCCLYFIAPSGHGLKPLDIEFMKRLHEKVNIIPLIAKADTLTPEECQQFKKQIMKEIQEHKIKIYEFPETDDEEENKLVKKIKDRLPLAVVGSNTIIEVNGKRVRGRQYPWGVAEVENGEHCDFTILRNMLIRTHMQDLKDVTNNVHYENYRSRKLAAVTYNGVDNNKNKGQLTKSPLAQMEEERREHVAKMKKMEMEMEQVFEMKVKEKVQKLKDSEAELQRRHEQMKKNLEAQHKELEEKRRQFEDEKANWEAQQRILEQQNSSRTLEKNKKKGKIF

[6] = target: T5, SEPT7 (endogenous, U2OS) (human (endogenous in U2OS)) (UniProt Q16181); test: native gel or EMSA
T5 sequence: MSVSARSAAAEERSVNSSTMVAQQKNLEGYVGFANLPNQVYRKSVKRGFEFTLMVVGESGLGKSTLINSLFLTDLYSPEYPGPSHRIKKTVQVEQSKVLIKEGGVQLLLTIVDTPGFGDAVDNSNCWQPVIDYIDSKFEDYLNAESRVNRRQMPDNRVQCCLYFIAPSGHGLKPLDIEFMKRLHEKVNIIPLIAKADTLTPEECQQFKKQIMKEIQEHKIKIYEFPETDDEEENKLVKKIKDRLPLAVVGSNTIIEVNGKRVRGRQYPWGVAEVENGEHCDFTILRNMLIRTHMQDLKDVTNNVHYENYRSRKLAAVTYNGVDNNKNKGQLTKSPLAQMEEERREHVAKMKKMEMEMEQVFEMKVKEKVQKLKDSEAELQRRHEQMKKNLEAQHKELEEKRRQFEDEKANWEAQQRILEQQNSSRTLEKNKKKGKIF

[7] = target: T6, msfGFP-SEPT7Gmut1 (SEPT7 W269A, H279D) (human) (UniProt Q16181); test: native gel or EMSA
T6 sequence: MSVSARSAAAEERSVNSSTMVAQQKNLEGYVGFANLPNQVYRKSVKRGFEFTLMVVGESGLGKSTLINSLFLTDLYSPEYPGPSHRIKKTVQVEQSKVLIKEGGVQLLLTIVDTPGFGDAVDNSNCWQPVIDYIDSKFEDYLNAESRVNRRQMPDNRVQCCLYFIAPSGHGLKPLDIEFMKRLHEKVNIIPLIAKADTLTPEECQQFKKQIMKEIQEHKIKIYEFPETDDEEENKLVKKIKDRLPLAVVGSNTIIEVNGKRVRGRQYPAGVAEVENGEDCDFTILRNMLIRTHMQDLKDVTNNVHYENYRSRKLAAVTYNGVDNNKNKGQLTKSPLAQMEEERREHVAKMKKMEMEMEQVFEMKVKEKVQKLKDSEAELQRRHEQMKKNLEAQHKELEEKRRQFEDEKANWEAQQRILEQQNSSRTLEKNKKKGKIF

B1: SEPT2-β10 and SEPT2-β11 (wild-type SEPT2 fused to GFP strand β10 or β11) (protein, UniProt Q15019 1-361)
chain: MSKQQPTQFINPETPGYVGFANLPNQVHRKSVKKGFEFTLMVVGESGLGKSTLINSLFLTDLYPERVIPGAAEKIERTVQIEASTVEIEERGVKLRLTVVDTPGYGDAINCRDCFKTIISYIDEQFERYLHDESGLNRRHIIDNRVHCCFYFISPFGHGLKPLDVAFMKAIHNKVNIVPVIAKADTLTLKERERLKKRILDEIEEHNIKIYHLPDAESDEDEDFKEQTRLLKASIPFSVVGSNQLIEAKGKKVRGRLYPWGVVEVENPEHNDFLKLRTMLITHMQDLQEVTQDLHYENFRSERLKRGGRKVENEDMNKDQILLEKEAELRRMQEMIARMQAQMQMQMQGGDGDGGALGHHV
binding [1]: binds

B2: β10-SEPT7 and β11-SEPT7 (wild-type SEPT7 fused to GFP strand β10 or β11), Q16181 1-437 (protein)
chain: MSVSARSAAAEERSVNSSTMVAQQKNLEGYVGFANLPNQVYRKSVKRGFEFTLMVVGESGLGKSTLINSLFLTDLYSPEYPGPSHRIKKTVQVEQSKVLIKEGGVQLLLTIVDTPGFGDAVDNSNCWQPVIDYIDSKFEDYLNAESRVNRRQMPDNRVQCCLYFIAPSGHGLKPLDIEFMKRLHEKVNIIPLIAKADTLTPEECQQFKKQIMKEIQEHKIKIYEFPETDDEEENKLVKKIKDRLPLAVVGSNTIIEVNGKRVRGRQYPWGVAEVENGEHCDFTILRNMLIRTHMQDLKDVTNNVHYENYRSRKLAAVTYNGVDNNKNKGQLTKSPLAQMEEERREHVAKMKKMEMEMEQVFEMKVKEKVQKLKDSEAELQRRHEQMKKNLEAQHKELEEKRRQFEDEKANWEAQQRILEQQNSSRTLEKNKKKGKIF
binding [2]: binds

B3: SEPT9_i3-β10 and SEPT9_i3-β11 (wild-type SEPT9 isoform 3 fused to GFP strand β10 or β11) (protein, UniProt Q9UHD8-2 1-568)
chain: MERDRISALKRSFEVEEVETPNSTPPRRVQTPLLRATVASSTQKFQDLGVKNSEPSARHVDSLSQRSPKASLRRVELSGPKAAEPVSRRTELSIDISSKQVENAGAIGPSRFGLKRAEVLGHKTPEPAPRRTEITIVKPQESAHRRMEPPASKVPEVPTAPATDAAPKRVEIQMPKPAEAPTAPSPAQTLENSEPAPVSQLQSRLEPKPQPPVAEATPRSQEATEAAPSCVGDMADTPRDAGLKQAPASRNEKAPVDFGYVGIDSILEQMRRKAMKQGFEFNIMVVGQSGLGKSTLINTLFKSKISRKSVQPTSEERIPKTIEIKSITHDIEEKGVRMKLTVIDTPGFGDHINNENCWQPIMKFINDQYEKYLQEEVNINRKKRIPDTRVHCCLYFIPATGHSLRPLDIEFMKRLSKVVNIVPVIAKADTLTLEERVHFKQRITADLLSNGIDVYPQKEFDEDSEDRLVNEKFREMIPFAVVGSDHEYQVNGKRILGRKTKWGTIEVENTTHCEFAYLRDLLIRTHMQNIKDITSSIHFEAYRVKRLNEGSSAMANGMEEKEPEAPEM
binding [3]: binds | binding [4]: binds

B4: SEPT9_i1-β10 and SEPT9_i1-β11 (wild-type SEPT9 isoform 1 fused to GFP strand β10 or β11) (protein, UniProt Q9UHD8-1 1-586)
chain: MKKSYSGGTRTSSGRLRRLGDSSGPALKRSFEVEEVETPNSTPPRRVQTPLLRATVASSTQKFQDLGVKNSEPSARHVDSLSQRSPKASLRRVELSGPKAAEPVSRRTELSIDISSKQVENAGAIGPSRFGLKRAEVLGHKTPEPAPRRTEITIVKPQESAHRRMEPPASKVPEVPTAPATDAAPKRVEIQMPKPAEAPTAPSPAQTLENSEPAPVSQLQSRLEPKPQPPVAEATPRSQEATEAAPSCVGDMADTPRDAGLKQAPASRNEKAPVDFGYVGIDSILEQMRRKAMKQGFEFNIMVVGQSGLGKSTLINTLFKSKISRKSVQPTSEERIPKTIEIKSITHDIEEKGVRMKLTVIDTPGFGDHINNENCWQPIMKFINDQYEKYLQEEVNINRKKRIPDTRVHCCLYFIPATGHSLRPLDIEFMKRLSKVVNIVPVIAKADTLTLEERVHFKQRITADLLSNGIDVYPQKEFDEDSEDRLVNEKFREMIPFAVVGSDHEYQVNGKRILGRKTKWGTIEVENTTHCEFAYLRDLLIRTHMQNIKDITSSIHFEAYRVKRLNEGSSAMANGMEEKEPEAPEM
binding [3]: binds | binding [4]: binds

B5: SEPT2-msfGFP (wild type), Q15019 1-361 (protein)
chain: MSKQQPTQFINPETPGYVGFANLPNQVHRKSVKKGFEFTLMVVGESGLGKSTLINSLFLTDLYPERVIPGAAEKIERTVQIEASTVEIEERGVKLRLTVVDTPGYGDAINCRDCFKTIISYIDEQFERYLHDESGLNRRHIIDNRVHCCFYFISPFGHGLKPLDVAFMKAIHNKVNIVPVIAKADTLTLKERERLKKRILDEIEEHNIKIYHLPDAESDEDEDFKEQTRLLKASIPFSVVGSNQLIEAKGKKVRGRLYPWGVVEVENPEHNDFLKLRTMLITHMQDLQEVTQDLHYENFRSERLKRGGRKVENEDMNKDQILLEKEAELRRMQEMIARMQAQMQMQMQGGDGDGGALGHHV
binding [5]: binds

B6: SEPT2NCmut-msfGFP (SEPT2 F20D, V27D) (protein, UniProt Q15019 1-361)
chain: MSKQQPTQFINPETPGYVGDANLPNQDHRKSVKKGFEFTLMVVGESGLGKSTLINSLFLTDLYPERVIPGAAEKIERTVQIEASTVEIEERGVKLRLTVVDTPGYGDAINCRDCFKTIISYIDEQFERYLHDESGLNRRHIIDNRVHCCFYFISPFGHGLKPLDVAFMKAIHNKVNIVPVIAKADTLTLKERERLKKRILDEIEEHNIKIYHLPDAESDEDEDFKEQTRLLKASIPFSVVGSNQLIEAKGKKVRGRLYPWGVVEVENPEHNDFLKLRTMLITHMQDLQEVTQDLHYENFRSERLKRGGRKVENEDMNKDQILLEKEAELRRMQEMIARMQAQMQMQMQGGDGDGGALGHHV
binding [6]: binds

B7: msfGFP-SEPT7Gmut1 (SEPT7 W269A, H279D) (protein, UniProt Q16181 1-437)
chain: MSVSARSAAAEERSVNSSTMVAQQKNLEGYVGFANLPNQVYRKSVKRGFEFTLMVVGESGLGKSTLINSLFLTDLYSPEYPGPSHRIKKTVQVEQSKVLIKEGGVQLLLTIVDTPGFGDAVDNSNCWQPVIDYIDSKFEDYLNAESRVNRRQMPDNRVQCCLYFIAPSGHGLKPLDIEFMKRLHEKVNIIPLIAKADTLTPEECQQFKKQIMKEIQEHKIKIYEFPETDDEEENKLVKKIKDRLPLAVVGSNTIIEVNGKRVRGRQYPAGVAEVENGEDCDFTILRNMLIRTHMQDLKDVTNNVHYENYRSRKLAAVTYNGVDNNKNKGQLTKSPLAQMEEERREHVAKMKKMEMEMEQVFEMKVKEKVQKLKDSEAELQRRHEQMKKNLEAQHKELEEKRRQFEDEKANWEAQQRILEQQNSSRTLEKNKKKGKIF
binding [7]: no binding

Reference: article doi:10.1101/2022.02.23.481653
